# Laboratory results: the supplement of paper PMC10849652
# Chains of the proteins cited; added tags and fusions are not shown. Lines headed by an entry give the natural chain unless they say otherwise; changes in a name come on top.
# UniProt P53701: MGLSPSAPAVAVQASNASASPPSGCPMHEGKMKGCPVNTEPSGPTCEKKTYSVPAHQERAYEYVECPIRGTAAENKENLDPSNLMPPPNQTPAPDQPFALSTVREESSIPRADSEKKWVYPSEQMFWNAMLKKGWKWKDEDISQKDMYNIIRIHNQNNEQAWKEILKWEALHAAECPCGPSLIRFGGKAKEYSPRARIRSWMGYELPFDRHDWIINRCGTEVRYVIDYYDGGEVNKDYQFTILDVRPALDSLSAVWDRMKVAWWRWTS
# UniProt P0C0S5, whole entry, looked up: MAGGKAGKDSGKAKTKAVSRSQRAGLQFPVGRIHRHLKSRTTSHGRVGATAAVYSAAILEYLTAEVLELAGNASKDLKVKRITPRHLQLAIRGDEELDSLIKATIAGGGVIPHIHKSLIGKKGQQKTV
# UniProt Q8N4P3, whole entry, looked up: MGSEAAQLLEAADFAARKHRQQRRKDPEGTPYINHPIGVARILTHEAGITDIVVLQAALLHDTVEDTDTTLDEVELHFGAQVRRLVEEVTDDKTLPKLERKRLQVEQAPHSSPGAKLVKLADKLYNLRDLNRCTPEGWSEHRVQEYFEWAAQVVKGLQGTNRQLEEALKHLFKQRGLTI
# UniProt P42694: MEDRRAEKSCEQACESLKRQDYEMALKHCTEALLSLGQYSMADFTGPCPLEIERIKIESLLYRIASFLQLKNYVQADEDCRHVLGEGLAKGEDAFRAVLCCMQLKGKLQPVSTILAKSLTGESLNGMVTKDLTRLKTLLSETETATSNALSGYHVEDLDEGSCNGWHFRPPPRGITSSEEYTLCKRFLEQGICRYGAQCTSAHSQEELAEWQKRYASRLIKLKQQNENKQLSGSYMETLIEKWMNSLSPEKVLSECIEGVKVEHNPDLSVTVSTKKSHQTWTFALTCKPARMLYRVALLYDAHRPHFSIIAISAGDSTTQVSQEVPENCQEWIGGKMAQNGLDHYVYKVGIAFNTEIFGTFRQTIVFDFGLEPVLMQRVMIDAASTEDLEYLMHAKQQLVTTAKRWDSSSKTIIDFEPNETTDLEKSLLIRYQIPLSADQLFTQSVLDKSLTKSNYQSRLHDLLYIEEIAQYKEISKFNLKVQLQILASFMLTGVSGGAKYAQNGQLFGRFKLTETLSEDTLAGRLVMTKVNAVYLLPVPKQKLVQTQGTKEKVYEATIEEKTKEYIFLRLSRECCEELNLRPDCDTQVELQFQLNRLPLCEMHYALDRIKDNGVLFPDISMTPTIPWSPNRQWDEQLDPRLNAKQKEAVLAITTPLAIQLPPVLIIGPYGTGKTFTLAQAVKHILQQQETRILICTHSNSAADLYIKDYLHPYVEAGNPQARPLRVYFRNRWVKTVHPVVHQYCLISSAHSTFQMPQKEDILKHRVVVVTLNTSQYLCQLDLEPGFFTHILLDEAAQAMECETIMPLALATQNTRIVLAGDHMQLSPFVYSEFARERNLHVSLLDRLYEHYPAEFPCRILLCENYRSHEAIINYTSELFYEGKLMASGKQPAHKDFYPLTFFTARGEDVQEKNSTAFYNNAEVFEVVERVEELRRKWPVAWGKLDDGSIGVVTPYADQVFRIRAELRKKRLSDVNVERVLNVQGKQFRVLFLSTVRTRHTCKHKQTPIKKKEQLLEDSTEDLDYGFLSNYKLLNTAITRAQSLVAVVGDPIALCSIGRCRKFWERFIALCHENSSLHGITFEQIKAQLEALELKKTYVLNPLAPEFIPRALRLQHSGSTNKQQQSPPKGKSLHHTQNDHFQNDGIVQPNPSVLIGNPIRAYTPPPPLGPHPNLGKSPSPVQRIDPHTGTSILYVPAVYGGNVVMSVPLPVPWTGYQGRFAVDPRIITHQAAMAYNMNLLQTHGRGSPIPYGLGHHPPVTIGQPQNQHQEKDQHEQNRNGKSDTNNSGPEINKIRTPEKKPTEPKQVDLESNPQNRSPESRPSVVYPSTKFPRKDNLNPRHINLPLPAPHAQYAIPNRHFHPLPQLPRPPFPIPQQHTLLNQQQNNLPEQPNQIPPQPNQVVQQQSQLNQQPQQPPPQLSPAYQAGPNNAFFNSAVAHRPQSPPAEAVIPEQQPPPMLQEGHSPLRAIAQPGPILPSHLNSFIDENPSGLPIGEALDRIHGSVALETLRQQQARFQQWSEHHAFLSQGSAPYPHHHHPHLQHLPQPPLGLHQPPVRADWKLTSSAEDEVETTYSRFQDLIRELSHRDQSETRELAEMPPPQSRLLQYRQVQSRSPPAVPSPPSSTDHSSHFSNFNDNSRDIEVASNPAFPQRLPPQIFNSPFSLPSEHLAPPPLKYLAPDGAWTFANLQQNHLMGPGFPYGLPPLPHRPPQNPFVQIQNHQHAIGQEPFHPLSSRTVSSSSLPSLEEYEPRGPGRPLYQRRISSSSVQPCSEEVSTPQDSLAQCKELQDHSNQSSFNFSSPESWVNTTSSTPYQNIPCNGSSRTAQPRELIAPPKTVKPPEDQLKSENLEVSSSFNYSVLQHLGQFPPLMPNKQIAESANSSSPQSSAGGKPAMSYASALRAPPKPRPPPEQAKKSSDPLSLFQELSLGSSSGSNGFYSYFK
# UniProt Q9Y450, whole entry, looked up: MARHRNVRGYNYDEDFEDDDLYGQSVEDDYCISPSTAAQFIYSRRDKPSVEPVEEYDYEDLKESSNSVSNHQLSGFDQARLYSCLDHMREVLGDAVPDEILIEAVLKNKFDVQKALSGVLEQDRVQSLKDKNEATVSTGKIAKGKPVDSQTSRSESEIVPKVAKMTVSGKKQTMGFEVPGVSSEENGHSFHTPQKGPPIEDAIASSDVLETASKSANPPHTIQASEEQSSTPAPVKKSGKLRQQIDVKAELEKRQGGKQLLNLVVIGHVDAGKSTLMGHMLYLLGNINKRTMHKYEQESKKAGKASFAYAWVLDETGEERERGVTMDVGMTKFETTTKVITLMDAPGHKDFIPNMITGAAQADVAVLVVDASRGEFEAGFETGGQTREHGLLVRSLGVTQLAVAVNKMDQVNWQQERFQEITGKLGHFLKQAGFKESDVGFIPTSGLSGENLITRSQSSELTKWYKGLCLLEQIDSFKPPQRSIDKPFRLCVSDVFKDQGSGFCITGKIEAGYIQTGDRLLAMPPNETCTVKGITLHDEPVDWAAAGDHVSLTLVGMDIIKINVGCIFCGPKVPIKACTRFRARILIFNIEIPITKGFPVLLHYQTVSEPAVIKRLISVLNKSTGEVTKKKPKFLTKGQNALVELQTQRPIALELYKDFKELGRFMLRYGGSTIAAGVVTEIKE
# UniProt O00165, whole entry, looked up: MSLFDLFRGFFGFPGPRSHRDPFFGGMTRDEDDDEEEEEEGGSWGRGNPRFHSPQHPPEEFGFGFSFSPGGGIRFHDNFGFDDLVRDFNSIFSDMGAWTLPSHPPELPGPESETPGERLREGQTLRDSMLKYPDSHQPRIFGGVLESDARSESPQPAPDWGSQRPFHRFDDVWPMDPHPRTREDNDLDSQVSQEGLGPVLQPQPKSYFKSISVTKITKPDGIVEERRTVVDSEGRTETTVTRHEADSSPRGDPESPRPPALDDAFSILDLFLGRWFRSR
# UniProt P13807: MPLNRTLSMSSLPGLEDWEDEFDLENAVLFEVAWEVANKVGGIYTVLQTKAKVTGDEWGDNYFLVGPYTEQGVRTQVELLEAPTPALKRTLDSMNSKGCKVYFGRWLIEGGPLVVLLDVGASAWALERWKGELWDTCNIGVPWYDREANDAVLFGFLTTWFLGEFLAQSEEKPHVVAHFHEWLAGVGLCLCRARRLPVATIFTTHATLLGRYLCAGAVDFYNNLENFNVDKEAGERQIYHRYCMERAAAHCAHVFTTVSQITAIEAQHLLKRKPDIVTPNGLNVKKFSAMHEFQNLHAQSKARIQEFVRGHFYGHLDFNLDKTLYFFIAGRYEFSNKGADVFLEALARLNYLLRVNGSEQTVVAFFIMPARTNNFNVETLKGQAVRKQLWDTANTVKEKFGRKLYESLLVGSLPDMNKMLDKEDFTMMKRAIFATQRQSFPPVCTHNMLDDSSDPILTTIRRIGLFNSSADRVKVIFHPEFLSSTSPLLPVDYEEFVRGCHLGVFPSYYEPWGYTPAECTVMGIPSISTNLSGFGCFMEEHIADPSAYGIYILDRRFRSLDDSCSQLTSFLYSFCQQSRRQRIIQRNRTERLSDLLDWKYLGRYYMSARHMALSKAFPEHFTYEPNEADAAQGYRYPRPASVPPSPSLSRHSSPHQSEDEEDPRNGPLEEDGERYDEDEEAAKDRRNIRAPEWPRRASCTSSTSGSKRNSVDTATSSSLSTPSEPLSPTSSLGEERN
# UniProt P69905, whole entry, looked up: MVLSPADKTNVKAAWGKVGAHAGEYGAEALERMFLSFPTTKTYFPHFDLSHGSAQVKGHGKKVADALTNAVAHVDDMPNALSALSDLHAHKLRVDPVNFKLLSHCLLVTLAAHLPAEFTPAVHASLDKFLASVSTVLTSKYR
# UniProt Q969Y2: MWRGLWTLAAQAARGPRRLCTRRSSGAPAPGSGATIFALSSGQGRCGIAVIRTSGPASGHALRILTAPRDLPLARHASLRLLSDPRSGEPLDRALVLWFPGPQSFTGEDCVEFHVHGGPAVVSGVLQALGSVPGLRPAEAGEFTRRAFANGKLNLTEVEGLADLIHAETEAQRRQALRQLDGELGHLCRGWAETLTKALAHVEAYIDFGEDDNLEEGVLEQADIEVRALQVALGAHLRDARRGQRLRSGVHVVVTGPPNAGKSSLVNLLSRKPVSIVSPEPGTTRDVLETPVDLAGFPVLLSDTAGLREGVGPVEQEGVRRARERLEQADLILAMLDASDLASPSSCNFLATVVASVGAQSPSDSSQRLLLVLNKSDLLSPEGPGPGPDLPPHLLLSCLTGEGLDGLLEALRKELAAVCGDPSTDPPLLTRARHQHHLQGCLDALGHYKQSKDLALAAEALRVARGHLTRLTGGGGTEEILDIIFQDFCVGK
# UniProt Q9P0R6: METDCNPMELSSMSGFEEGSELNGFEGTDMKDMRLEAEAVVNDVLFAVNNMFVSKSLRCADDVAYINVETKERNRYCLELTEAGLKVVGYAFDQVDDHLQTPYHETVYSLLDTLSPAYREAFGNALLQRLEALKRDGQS
# UniProt Q16836: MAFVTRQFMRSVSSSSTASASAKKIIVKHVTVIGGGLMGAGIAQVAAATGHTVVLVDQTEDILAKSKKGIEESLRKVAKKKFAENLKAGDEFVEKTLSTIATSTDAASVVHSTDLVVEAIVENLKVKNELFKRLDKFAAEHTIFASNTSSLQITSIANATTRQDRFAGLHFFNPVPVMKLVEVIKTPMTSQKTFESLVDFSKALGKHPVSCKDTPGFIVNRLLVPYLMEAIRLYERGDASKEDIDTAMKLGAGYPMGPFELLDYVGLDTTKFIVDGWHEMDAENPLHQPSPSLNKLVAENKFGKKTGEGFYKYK
# UniProt Q9H0R4: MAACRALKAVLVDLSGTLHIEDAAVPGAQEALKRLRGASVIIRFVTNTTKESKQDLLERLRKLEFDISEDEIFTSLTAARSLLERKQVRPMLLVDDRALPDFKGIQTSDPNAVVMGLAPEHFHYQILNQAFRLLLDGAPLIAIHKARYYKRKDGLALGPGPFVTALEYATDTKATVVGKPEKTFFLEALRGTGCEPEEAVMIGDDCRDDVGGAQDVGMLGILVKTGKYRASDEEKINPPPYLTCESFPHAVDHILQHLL
# UniProt P09211: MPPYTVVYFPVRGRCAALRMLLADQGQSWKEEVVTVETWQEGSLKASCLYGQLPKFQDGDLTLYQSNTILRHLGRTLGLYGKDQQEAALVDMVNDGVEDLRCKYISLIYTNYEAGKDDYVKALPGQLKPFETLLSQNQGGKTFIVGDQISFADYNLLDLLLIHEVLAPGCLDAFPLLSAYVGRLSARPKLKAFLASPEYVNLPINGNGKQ
# UniProt P14317: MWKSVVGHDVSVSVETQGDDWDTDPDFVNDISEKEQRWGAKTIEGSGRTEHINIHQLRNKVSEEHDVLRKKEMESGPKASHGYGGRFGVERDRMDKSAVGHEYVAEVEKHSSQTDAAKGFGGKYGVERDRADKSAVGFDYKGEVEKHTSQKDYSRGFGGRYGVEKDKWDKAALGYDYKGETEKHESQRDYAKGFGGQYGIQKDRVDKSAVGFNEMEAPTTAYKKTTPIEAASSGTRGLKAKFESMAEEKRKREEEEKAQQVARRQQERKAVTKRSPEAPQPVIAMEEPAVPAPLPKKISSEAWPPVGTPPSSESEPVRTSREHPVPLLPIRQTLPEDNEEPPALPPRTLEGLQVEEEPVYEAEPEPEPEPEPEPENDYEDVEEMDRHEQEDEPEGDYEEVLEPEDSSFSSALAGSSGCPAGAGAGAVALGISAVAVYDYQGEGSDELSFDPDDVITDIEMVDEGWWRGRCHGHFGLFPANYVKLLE
# UniProt P02724: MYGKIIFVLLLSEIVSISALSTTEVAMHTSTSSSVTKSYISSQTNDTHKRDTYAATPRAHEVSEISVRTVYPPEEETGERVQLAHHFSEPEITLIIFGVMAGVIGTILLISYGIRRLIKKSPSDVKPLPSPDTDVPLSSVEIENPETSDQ
# UniProt Q9NRV9: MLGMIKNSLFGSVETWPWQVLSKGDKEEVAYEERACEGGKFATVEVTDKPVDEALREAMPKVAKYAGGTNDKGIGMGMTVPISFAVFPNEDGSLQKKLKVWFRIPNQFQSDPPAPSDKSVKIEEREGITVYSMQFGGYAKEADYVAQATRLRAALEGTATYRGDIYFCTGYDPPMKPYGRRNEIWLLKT
# The other results are listed elsewhere or left out.
# Compound: Cn1cncc1[C@@](N)(c1ccc(Cl)cc1)c1ccc2c(c1)c(-c1cccc(Cl)c1)cc(=O)n2C [tipifarnib]
# Test: log2 fold change, soluble protein after heating vs DMSO (PISA); higher = thermal stabilisation; K562 cells, 10 uM, 30 min; active = over 0.2 and 3.5 SD of the protein, either way, in both replicates (recomputed)
# Procedure, shortened: (§1)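 K562 cells at 2×10^6 cells/mL were treated for 30 min with 10 μM compound, and aliquots were heated for 3 min over 48°C-58°C before pooling. Extraction used PBS with 0.5% NP-40 at 4°C, and soluble protein was the supernatant after 21,000xg for 90 min, measured by TMTpro 16plex LC-MS/MS with channel sums equalised. Thermal stability values, relative to control samples and from duplicates, are log2 fold changes.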
row,Target,log2 fold change
1,HCCS (UniProt P53701),inactive: -0.009
2,GTPBP1 (UniProt O00178),inactive: 0.012
3,GYG1 (UniProt P46976),inactive: -0.009
4,GTF2A2 (UniProt P52657),inactive: -0.028
5,HEATR5B (UniProt Q9P2D3),inactive: -0.052
6,H2AZ1 (UniProt P0C0S5),inactive: 0.013
7,GTF2F1 (UniProt P35269),inactive: 0.01
8,GSK3B isoform 2 (UniProt P49841),inactive: -0.024
9,HDDC3 (UniProt Q8N4P3),inactive: -0.009
10,GSPT1 isoform 3 (UniProt P15170),inactive: -0.055
11,HELZ (UniProt P42694),inactive: -0.033
12,HBZ (UniProt P02008),inactive: -0.183
13,HBS1L isoform 2 (UniProt Q9Y450),inactive: -0.031
14,H1-3 (UniProt P16402),inactive: 0.076

# Compound: FC(F)(F)c1ccc(/C=C/c2nc(COc3ccc(CCCCn4ccnn4)cc3)co2)cc1 [mubritinib]
# Test: as above
# Procedure, shortened: as §1
row,Target,log2 fold change
1,HERC2 (UniProt O95714),inactive: -0.061
2,HAX1 (UniProt O00165),inactive: 0.001
3,HEBP2 (UniProt Q9Y5Z4),inactive: 0.029
4,GYS1 (UniProt P13807),inactive: 0.001
5,HBA1 (UniProt P69905),inactive: 0.024
6,H1-2 (UniProt P16403),inactive: -0.148
7,GTPBP3 isoform 2 (UniProt Q969Y2),inactive: 0.013
8,GSKIP (UniProt Q9P0R6),inactive: 0
9,HAT1 (UniProt O14929),inactive: -0.033
10,GTSF1 (UniProt Q8WW33),inactive: 0.021
11,HADH isoform 2 (UniProt Q16836),inactive: 0.131
12,HDHD2 (UniProt Q9H0R4),inactive: 0.045
13,HDAC6 (UniProt Q9UBN7),inactive: 0.086
14,GSTP1 (UniProt P09211),inactive: 0.038
15,H1FX (UniProt Q92522),inactive: -0.138
16,HCLS1 (UniProt P14317),inactive: 0.034
17,GYPA (UniProt P02724),inactive: 0.05
18,HEXB (UniProt P07686),inactive: 0.008
19,HAUS4 (UniProt Q9H6D7),inactive: -0.547

row,Target,log2 fold change
1,HEBP1 (UniProt Q9NRV9),inactive: 0.028
2,GXYLT1 (UniProt Q4G148),inactive: 0.014
3,HEMGN (UniProt Q9BXL5),inactive: -0.009
4,HBG1 (UniProt P69891),inactive: 0.036
5,HEXIM1 (UniProt O94992),inactive: 0.029
6,HCCS (UniProt P53701),inactive: 0.062
7,GTPBP1 (UniProt O00178),inactive: -0.123
8,GYG1 (UniProt P46976),inactive: -0.104
9,GTF2A2 (UniProt P52657),inactive: 0.008
10,HEATR5B (UniProt Q9P2D3),inactive: 0.034
11,H2AZ1 (UniProt P0C0S5),inactive: -0.083
12,GTF2F1 (UniProt P35269),inactive: 0.042
13,GSK3B isoform 2 (UniProt P49841),inactive: -0.008
14,HDDC3 (UniProt Q8N4P3),inactive: 0.019
15,GSPT1 isoform 3 (UniProt P15170),inactive: 0.02
16,HELZ (UniProt P42694),inactive: -0.114
17,HBZ (UniProt P02008),inactive: 0.049
18,HBS1L isoform 2 (UniProt Q9Y450),inactive: -0.114
19,H1-3 (UniProt P16402),inactive: -0.184
